Data as given in the supplement of paper PMC10735217.
Where a name gives a salt, the structure may show the parent alone. This is one part of the list. Repeats in this data set agree poorly, so a single value says little.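 Human kidney-derived cells stably carry a construct in which eight TEAD-binding elements drive luciferase, measured by luminescence in a drug-repurposing library screen. A hit is any compound whose signal exceeds the plate mean by more than five robust Z scores.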

Test system: HEK293A TEAD-LUC reporter
Experiment: TEAD-luciferase reporter activity (YAP activation), robust Z score vs plate; higher = stronger YAP/TEAD activation
Settings: 24 h

Compound	TEAD-luciferase reporter activity (compound concentration: 200 nM)	TEAD-luciferase reporter activity (compound concentration: 2 uM)	TEAD-luciferase reporter activity (compound concentration: 10 uM)
O=P(O)(O)[C@H](CCCc1cccc(Oc2ccccc2)c1)S(=O)(=O)O	inactive: 0.0846	inactive: -0.535	inactive: 4.24
C/C(=C\c1ccccc1)c1ccc2c(c1)C(C)(C)CCC2(C)C [Temarotene]	inactive: -0.657	inactive: 0.0587	inactive: -0.365
O=C1[O][Pt]2([NH]CC3(CCOCC3)C[NH]2)[O]C(=O)C12CCC2 [enloplatin]	inactive: 2.12	inactive: -0.369	inactive: 2.27
O=C(O)Cc1ccc(C(=O)C2CC2)cc1	inactive: 0.548	inactive: 0.0813	inactive: 1.87
CC(C)c1cc(C(C)C)c(CC(=O)NS(=O)(=O)Oc2c(C(C)C)cccc2C(C)C)c(C(C)C)c1	inactive: -1	inactive: 1.63	inactive: -0.94
CC(=O)NC[C@H]1CN(c2ccc(-c3ccno3)c(F)c2)C(=O)O1	inactive: -0.899	inactive: -0.664	inactive: 0.554
CC(C)(Oc1ccc(Cl)cc1)C(=O)OCCN1CCN(CCCN2c3ccccc3Sc3ccc(C(F)(F)F)cc32)CC1	inactive: 2.21	inactive: 2.17	inactive: -0.526
C=CCN1CCc2nc(N)sc2CC1 [talipexole]	inactive: -1.35	inactive: 1.86	inactive: 4.8
O=C(CO)[C@@H](O)[C@H](O)[C@H](O)CO	inactive: 0.872	inactive: -1.8	inactive: -0.179
CN1CCC(C(=O)N2Cc3ccccc3CC3(CCCCN3CC3CCNC3)C2)CC1 (centres undefined)	inactive: -0.294	–	inactive: -0.0962
O=C(O)c1cc(NCc2c(F)c(F)c(C(F)(F)F)c(F)c2F)ccc1O	inactive: 1.15	inactive: -1.23	inactive: 1.13
CSc1ccc(SC(P(=O)([O-])O)P(=O)([O-])O)cc1	inactive: -1.24	inactive: 0.456	inactive: 0.264
CCOC(=O)C1CCN(c2nc(N(C)S(=O)(=O)c3ccc(C)cc3)ccc2[N+](=O)[O-])CC1	inactive: -1.02	inactive: -1.85	inactive: 2.96
O=C1NCc2ccccc2CC12CCCN2Cc1ccccc1Cl (centres undefined)	inactive: 0.101	–	inactive: -0.349
Cc1ccc(=O)n(-c2ccccc2)c1 [Pirfenidone]	inactive: 4.69	–	inactive: -1.24
Cc1ccc(=O)n(-c2ccccc2)c1 [pirfenidone]	–	inactive: 1.63	–
Cc1ncc2c(c1O)COC2c1ccc(Cl)cc1 (centres undefined) [cicletanine hydrochloride]	inactive: -0.0815	inactive: 2.01	inactive: 0.878
O=C(Nc1cccc2ccccc12)C1CCN(C(=O)Cn2c(=O)sc3ccc(Cl)cc32)CC1	inactive: -0.158	inactive: -0.329	inactive: 4.07
OC[C@H]1O[C@@H](O[C@@H]2[C@@H](CO)O[C@@](O)(CO)[C@H]2O)[C@H](O)[C@@H](O)[C@H]1O [Lactulose]	inactive: 0.608	inactive: 0.0213	active: 5.38
C[C@@]12CC[C@@H]3[C@@](CC[C@H]4[C@@]3(C)CCC[C@@]4(C)C(=O)O)(CC1=O)C2 [Isosteviol]	inactive: 2.67	inactive: 0.408	inactive: 1.05
CO[C@@H]1[C@H](OC(=O)/C=C/C=C/C=C/C=C/C(=O)O)CC[C@]2(CO2)[C@H]1[C@@]1(C)O[C@@H]1CC=C(C)C [Fumagillin]	active: 7.01	inactive: -2.19	inactive: -1.2
CN(C)CCn1nnnc1SCC1=C(C(=O)O)N2C(=O)[C@@H](NC(=O)Cc3csc(N)n3)[C@H]2SC1 [Cefotiam dihydrochloride hydrate]	inactive: -0.731	–	inactive: 1.48
CN(C)CCn1nnnc1SCC1=C(C(=O)O)N2C(=O)[C@@H](NC(=O)Cc3csc(N)n3)[C@H]2SC1 [cefotiam]	–	inactive: -0.986	–
CC(C)(C)C(=O)C(Oc1ccc(Cl)cc1)n1ccnc1 (centres undefined) [Climbazole]	inactive: 0.887	inactive: -1.02	inactive: 1.94
CCOC(=O)CCc1nsnc1OCC(O)CNCC(C)C (centres undefined)	inactive: -0.181	inactive: -1.2	inactive: 0.701
CCOc1ccc(Cc2cc([C@]34OC[C@](CO)(O3)[C@@H](O)[C@H](O)[C@H]4O)ccc2Cl)cc1 [ertugliflozin]	inactive: -1.49	inactive: -0.863	active: 5.19
COC(=O)c1ccccc1C(=O)N1CCSC1	inactive: -0.446	inactive: 1.32	inactive: 0.526
Cc1ccc(Cc2cc3c(=O)n([C@H]4CCCC[C@@H]4O)cnc3c3ccccc23)cn1	inactive: -1.6	inactive: -0.971	inactive: 3.45

Given bar-delimited: part of the list above.
Compound | TEAD-luciferase reporter activity (compound concentration: 200 nM) | TEAD-luciferase reporter activity (compound concentration: 2 uM) | TEAD-luciferase reporter activity (compound concentration: 10 uM)
Cc1ccc(=O)n(-c2ccccc2)c1 [Pirfenidone] | inactive: 4.69 | – | inactive: -1.24
Cc1ccc(=O)n(-c2ccccc2)c1 [pirfenidone] | – | inactive: 1.63 | –

(continued)

Compound	TEAD-luciferase reporter activity (compound concentration: 200 nM)	TEAD-luciferase reporter activity (compound concentration: 2 uM)	TEAD-luciferase reporter activity (compound concentration: 10 uM)
C=C1/C(=C\C=C2/CCC[C@]3(C)[C@@H]([C@H](C)CC[C@@H](O)C(C)C)CC[C@@H]23)C[C@@H](O)C[C@@H]1O [Tacalcitol]	inactive: -0.709	inactive: -0.13	inactive: 3.59
Cc1cccc(C)c1NC(=O)C1(N(C)C)CCN([C@H]2CCCC[C@@H]2O)CC1	inactive: -0.455	inactive: -1.37	inactive: -0.776
CCNCc1nc2c(O)c(Cl)cc(Cl)c2c(=O)n1C	inactive: -0.929	inactive: -1.78	inactive: -0.0344
CC1(C)CN(c2cccc[n+]2[O-])c2cc([N+](=O)[O-])ccc2O1	inactive: -1.67	inactive: 3.3e-05	inactive: 4.61
CC(C)OC(Cc1cccc(OC[C@H](F)COc2ccc(Cl)cc2C#N)c1)C(=O)O (some centres undefined)	inactive: -1.38	inactive: 1.52	inactive: 0.438
CN1CCC=C(c2nc(N)sc2Cl)C1	inactive: 4.6	inactive: -0.442	inactive: -0.092
Cc1cccc(-c2cccc(CN3CCC(NC(=O)c4ccccc4F)CC3)c2)c1	inactive: 0.0316	–	inactive: -0.191
CCCC(=O)c1cnc2c(OCCS(C)=O)cccc2c1Nc1ccccc1C (centres undefined)	inactive: 0.616	inactive: -1.9	inactive: -0.243
C/C=C/C[C@@H](C)[C@@H](O)[C@H]1C(=O)N[C@@H](CC)C(=O)N(C)CC(=O)N(C)[C@@H]([C@@H](C)CC)C(=O)N[C@@H](C(C)C)C(=O)N(C)[C@@H](CC(C)C)C(=O)N[C@@H](C)C(=O)N[C@H](C)C(=O)N(C)[C@@H](CC(C)C)C(=O)N(C)[C@@H](CC(C)C)C(=O)N(C)[C@@H](C(C)C)C(=O)N1C	inactive: -0.758	inactive: 0.838	inactive: -0.221
CN(C(=O)C(Cl)Cl)c1ccc(OC(=O)c2ccco2)cc1 [diloxanide furoate]	inactive: -0.468	inactive: -1.67	inactive: 0.905
CCCCNC(=O)c1ccc(Cl)cc1O	inactive: -0.702	inactive: -0.348	inactive: -1.23
Cc1ccc2oc(N3CCC(N)CC3)nc2n1	inactive: -0.685	inactive: -0.281	inactive: -1.4
Cc1cncn1CC#CCN1CCCC1=O	inactive: -0.0942	inactive: 0.768	inactive: -0.699
Cc1cc(C(=O)NC2CC(C)(C)Oc3nc(-c4ccc(Cl)cc4Cl)c(-c4ccc(Cl)cc4)cc32)n[nH]1 (centres undefined)	inactive: -1.39	inactive: -1.2	inactive: -0.031
COc1ccc(CCNCC(O)COc2ccc(NN=C(C)C)nn2)cc1OC (centres undefined) [dramedilol]	inactive: -0.759	inactive: -0.806	inactive: -1.04
CCNc1c(C)cc(Cc2cnc(N)nc2N)c2cccnc12	inactive: -1.75	inactive: 0.314	inactive: 1.06
COCCc1ccc(OCC(O)CNC(C)C)cc1 (centres undefined) [metoprolol succinate CDT]	–	inactive: -0.172	–
COCCc1ccc(OCC(O)CNC(C)C)cc1 (centres undefined) [metoprolol succinate CDT,SCOLR]	inactive: -1.08	–	inactive: -0.983
O=S(=O)(c1ccccc1)N(CC(F)(F)F)c1ccc(C(O)(C(F)(F)F)C(F)(F)F)cc1	inactive: -0.239	inactive: -0.831	inactive: 2.87
CC(C)[C@H](N)C(=O)OCCOCn1cnc2c(=O)[nH]c(N)nc21 [valaciclovir]	inactive: -1.55	inactive: 0.753	inactive: -2.56
O=C(CC(Cc1ccccc1)C(=O)O)c1ccc(F)cc1 (centres undefined)	inactive: -1.32	inactive: 1.82	inactive: 0.457
C[C@@H]1OC(O)[C@@H](F)[C@H](O)[C@@H]1O (some centres undefined) [2-Fluorofucose]	inactive: 0.472	inactive: -0.51	inactive: -0.797
N#C/C(=C1/SC[C@@H](c2ccc(Cl)cc2Cl)S1)n1ccnc1 [Luliconazole]	inactive: -2.23	–	inactive: 0.118
N#C/C(=C1/SC[C@@H](c2ccc(Cl)cc2Cl)S1)n1ccnc1 [luliconazole]	–	inactive: 0.471	–
CCCc1c(OCCCSc2nnc(SCC(=O)O)s2)ccc(C(C)=O)c1O	inactive: 0.584	inactive: -0.997	inactive: 1
CCOc1ccc(CC(CN(CCN(CC(=O)O)CC(=O)O)CC(=O)O)N(CC(=O)O)CC(=O)O)cc1 (centres undefined) [Gadoxetate disodium]	active: 5.69	–	inactive: 3.86
CCOC(=O)Oc1ccc(CCNC(=O)[C@H](CCSC)NC(C)=O)cc1OC(=O)OCC	inactive: -0.0584	inactive: -0.516	inactive: -0.907

Record cards, from the list above. Values in the order: TEAD-luciferase reporter activity (compound concentration: 200 nM)	TEAD-luciferase reporter activity (compound concentration: 2 uM)	TEAD-luciferase reporter activity (compound concentration: 10 uM)
C/C(=C\c1ccccc1)c1ccc2c(c1)C(C)(C)CCC2(C)C [Temarotene] as listed: inactive: -0.657	inactive: 0.0587	inactive: -0.365
Cc1ncc2c(c1O)COC2c1ccc(Cl)cc1 (centres undefined) [cicletanine hydrochloride] as listed: inactive: -0.0815	inactive: 2.01	inactive: 0.878
